The supplement of paper PMC9549374
This is one part of the list. No stated cut-off is given here; in the data, active = 2-fold of DMSO or more and inactive = the rest. Single values of this set are uncertain. Some low values are a fixed figure set by the source, not a measured ratio.

Test system: CM7/1-hgem mouse ES cell-derived cardiomyocytes
Experiment: maximal number of mAG-hGem(1/110)-positive cardiomyocytes over 96 h, fold-change vs DMSO; higher = more cardiomyocyte cell cycle activity
Settings: 1 µM; 96 (max over 12 h time points) h

Structure (SMILES)	maximal number
CCC(=O)O[C@H]1CC[C@H]2[C@@H]3CCC4=CC(=O)CC[C@]4(C)[C@H]3CC[C@]12C	inactive: 1
C[C@]12CC[C@H]3[C@@H](CC[C@@]45O[C@@H]4C(O)=C(C#N)C[C@]35C)[C@@H]1CC[C@@H]2O	inactive: 1
COc1ccc(C(=O)O)cc1OC	inactive: 1
CC(O)(CS(=O)(=O)c1ccc(F)cc1)C(=O)Nc1ccc(C#N)c(C(F)(F)F)c1 (stereo not drawn)	inactive: 0
CCC(C)C(=O)O[C@@H]1C[C@@]2(C)[C@H](c3ccoc3)OC(=O)CC23OC2(C)O[C@]14[C@]1(C)[C@@H](CC(=O)OC)C5(C)CC1(O)[C@](O)(C5OC(=O)C1(C)OC1C)[C@@H](OC(C)=O)[C@]34O2 (stereo partly drawn)	inactive: 1
CC[C@@]1(O)C(=O)OCc2c1cc1n(c2=O)Cc2cc3ccccc3nc2-1	inactive: 1
COc1cc(OC)c(OC)cc1C=O	inactive: 1
Nc1ccncc1	inactive: 1
CNc1ccccc1C(=O)O	active: 2
CC(=O)O[C@@H]1C[C@@]2(C)[C@H](c3ccoc3)C[C@H]3O[C@]32[C@]2(C)C(=O)C(O)=C3C(C)(C)C(=O)C=C[C@]3(C)[C@@H]12	inactive: 1
COc1cc2c3cc1Oc1c(OC)c(OC)cc4c1[C@@H](Cc1cccc(c1)Oc1ccc(c(O)c1)C[C@@H]3N(C)CC2)N(C)CC4	inactive: 1
O=C(N/N=C/c1ccc([N+](=O)[O-])o1)c1cc([N+](=O)[O-])cc([N+](=O)[O-])c1O	inactive: 1
N#Cc1c(Cl)c(Cl)c(Cl)c(C#N)c1Cl	inactive: 1
